Measured values from patent US20180044686A1, “TOOLS AND METHODS FOR USING CELL DIVISION LOCI TO CONTROL PROLIFERATION OF CELLS” (Sinai Health System, priority 2015, published 2018).
At least one compound was matched to its structure with a doubt left.

How the values were obtained:
Cenpa gene expression = experiment: Quantitative PCR of Cenpa expression in Cenpa-EARC cells; type: cell-based, mouse; details: without Dox for 2 days, versus with Dox and wild type C2 ES cells
[1] = test system: homozygous Cdk1 dox-bridge knock-in mouse ES cells; experiment: Targeted cell growth of Cdk1 dox-bridge (EARC) ES cells; type: cell-based
Procedure: F3-bridge targeted cells were trypsinized and plated on gelatinized 24 well plates at a density of 5×10^4 cells per well. Starting one day after plating, cell counting was performed by trypsinizing 3 wells for each condition and counting live cells using a Countess automated cell counter (Life Technologies). Doxycycline was removed or reduced to 0.05 ng/ml 2 days after plating and live cells were counted every day up to 18 days in the different conditions.

Top2a-EARC ES cells = experiment: Targeted cell growth of Top2a-EARC ES cells; type: cell-based, mouse
Procedure: (§1) Top2a homozygously-targeted cells were trypsinized and plated on gelatinized 24 well plates at a density of 5×10^4 cells per well. Starting one day after plating, cells were exposed to different Dox concentrations (1 μg/ml, 0.5 μg/ml, 0.05 μg/ml and 0 μg/ml), the plate was analyzed in a IncucyteZoom system (Essen Bioscience) by taking pictures every two hours for 3-4 days and measuring confluency.

Birc5-EARC ES cells = experiment: Targeted cell growth of Birc5-EARC ES cells; type: cell-based, mouse
Procedure: as §1, with “Birc5” for “Top2a”, “confluence.” for “confluency.”

Cenpa-EARC ES cells = experiment: Targeted cell growth of Cenpa-EARC ES cells; type: cell-based, mouse
Procedure: as §1, with “Cenpa” for “Top2a”

Birc5 gene expression = experiment: Quantitative PCR of Birc5 expression in Birc5-EARC cells; type: cell-based, mouse; details: without Dox for 2 days, versus with Dox and wild type C2 ES cells
Eef2-EARC ES cells = experiment: Targeted cell growth of Eef2-EARC ES cells; type: cell-based, mouse
Procedure: as §1, with “Eef2” for “Top2a”, “confluence.” for “confluency.”

[2] = in the presence of doxycycline, 4 days

C[C@H]1c2cccc(O)c2C(=O)C2=C(O)[C@]3(O)C(=O)C(C(N)=O)=C(O)[C@@H](N(C)C)[C@@H]3[C@@H](O)[C@@H]21 [doxycycline]
Cenpa expression level (Cenpa gene expression): greatly reduced
cell number ([1]; 20× lower doxycycline (50 ng/ml) after initial 3 days of growth): sufficient to maintain a constant number of cells on the plates for at least five days
cell/colony survival ([1]; doxycycline lowered 20× (50 ng/ml), 5 days): allowed some cells/colonies to survive the 5 days period
growth rate ([1]; high doxycycline concentration (10 μg/ml)): slowed to a rate similar to that of cells grown in low concentration doxycycline
cell growth ([1]; in the presence of doxycycline (normal concentration)): grew exponentially
regrowth ([1]; normal concentration of doxycycline added back on day 10): cells started growing again as normal ES cells
live cells after withdrawal ([1]; withdrawal of doxycycline on Day 1): no live cells were present on Day 9
cell growth (Top2a-EARC ES cells; [2]): grew exponentially
cell growth (Top2a-EARC ES cells; two days after doxycycline removal): completely arrested
cell growth (Birc5-EARC ES cells; 50 hours after doxycycline removal): completely arrested
cell growth (Birc5-EARC ES cells; [2]): grew exponentially
cell growth (Birc5-EARC ES cells; lower Dox concentrations (0.5 and 0.05 μg/ml) versus 1 μg/ml): promote better cell growth than a higher concentration
cell growth (Cenpa-EARC ES cells; 80 hours after doxycycline removal): completely arrested
cell growth (Cenpa-EARC ES cells; [2]): grew exponentially
Birc5 expression level (Birc5 gene expression): greatly reduced
cell growth (Eef2-EARC ES cells; [2]): grew exponentially
cell growth (Eef2-EARC ES cells; without doxycycline): completely failed to grow
